From patent CN112794900A
These are yes or no findings as the source states them, for the method shown. Some results given as binding are weak or reduced against the parent protein; the word gives no strength.

Columns and labels:
[1] = target: T1, cBIN1 Isoform II2 (cBIN1 exon1-13&18-20) (UniProt O00499); assay: Western blot, primary antibody at 10μg/ml
T1 sequence (looked up): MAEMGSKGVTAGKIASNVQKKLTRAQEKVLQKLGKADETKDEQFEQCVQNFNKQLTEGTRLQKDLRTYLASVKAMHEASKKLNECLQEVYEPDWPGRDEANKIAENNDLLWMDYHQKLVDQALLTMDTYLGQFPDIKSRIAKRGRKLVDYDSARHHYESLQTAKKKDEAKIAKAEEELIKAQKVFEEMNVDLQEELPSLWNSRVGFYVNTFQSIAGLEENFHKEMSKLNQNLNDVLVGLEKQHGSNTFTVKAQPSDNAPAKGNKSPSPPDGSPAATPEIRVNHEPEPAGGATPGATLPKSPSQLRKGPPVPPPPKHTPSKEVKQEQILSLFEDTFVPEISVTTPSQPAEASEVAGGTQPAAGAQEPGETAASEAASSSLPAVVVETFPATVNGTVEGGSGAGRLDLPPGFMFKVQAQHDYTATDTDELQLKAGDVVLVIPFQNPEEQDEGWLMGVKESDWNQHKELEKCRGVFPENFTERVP

[2] = target: T1, cBIN1 Isoform II2 (cBIN1 exon1-13&18-20); assay: ELISA, antigen coated

- binding [1]: binds
- binding [2]: binds
B1: 鼠源抗体 8G1-D7-F5 (抗人源cBIN1 exon13抗体) (antibody, V domains shown)
VH: EVQLQQSGAELVRPGASVKLSCTTSGFNIKDSYMHWVKQRPEQGLEWIGRIDPEDDDAVYAPKFQDRATMTADTSSNTAYLHLSSLTSDDTAVYYCTTSTLVATPWFFDVWGTGTTVTVSS
VL: DIQMTQTTSSLSASLGDRVTISCSASQDINNYLNWYQQKPDGTVKLLIYYTSTLHSGVPSRFSGSGSGTDYSLTITNLEPEDFATYYCQQYTHNLPWTFGGGTKLEIK
